This experiment concerns Naegleria fowleri. Nature of the experiment: Antiprotozoal activity against Naegleria fowleri European KUL assessed as inhibition of parasite growth incubated for 48 hrs by CellTiter-Glo luminescent cell viability assay. The class given is functional, organism-based. An outline of the steps: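 N. fowleri European KUL trophozoites, axenic in Nelson's medium + 10% FBS at 37 °C, harvested in log phase. Single-point screen at 10 μM in duplicate (2,500 amoebae/well). Dose–response in triplicate, serial dilution 50 to 0.39 μM (10,000 amoebae/well). 48 h at 37 °C; viability by CellTiter-Glo luminescence.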
(In general: In ATP-based viability assays light output follows the ATP content of the culture.)

A word on the EC50: it is the concentration giving half of the maximal effect. As to `Clc1ccc(COC(Cn2ccnc2)c2ccc(Cl)cc2Cl)c(Cl)c1` (stereo unspecified) [MICONAZOLE], the EC50 is less than 2000 nM.

Values taken from ChEMBL document CHEMBL5356968, “Miconazole-like Scaffold is a Promising Lead for Naegleria fowleri-Specific CYP51 Inhibitors” (J Med Chem, 2023).
